This data set deals with Vimentin (VIM, cell surface) (Homo sapiens) (UniProt P08670). Nature of the data set: pull-down. The conditions noted are these: PS (monothiophosphate at dA, from dATP(alphaS)); formaldehyde-crosslinked pulldown and MS from hyperphosphorylated SH-SY5Y, PBS 4 C; VIM described as likely target; co-staining with cell-surface VIM antibody; protein on the cell surface; protein details: endogenous on hyperphosphorylated SH-SY5Y cells; label: biotin (pulldown), Cy5 (staining); single-stranded DNA.

Protein sequences, listed by entry. Tags and fused reporters are not part of them. Residues count along the entry.
UniProt P08670, 2-466: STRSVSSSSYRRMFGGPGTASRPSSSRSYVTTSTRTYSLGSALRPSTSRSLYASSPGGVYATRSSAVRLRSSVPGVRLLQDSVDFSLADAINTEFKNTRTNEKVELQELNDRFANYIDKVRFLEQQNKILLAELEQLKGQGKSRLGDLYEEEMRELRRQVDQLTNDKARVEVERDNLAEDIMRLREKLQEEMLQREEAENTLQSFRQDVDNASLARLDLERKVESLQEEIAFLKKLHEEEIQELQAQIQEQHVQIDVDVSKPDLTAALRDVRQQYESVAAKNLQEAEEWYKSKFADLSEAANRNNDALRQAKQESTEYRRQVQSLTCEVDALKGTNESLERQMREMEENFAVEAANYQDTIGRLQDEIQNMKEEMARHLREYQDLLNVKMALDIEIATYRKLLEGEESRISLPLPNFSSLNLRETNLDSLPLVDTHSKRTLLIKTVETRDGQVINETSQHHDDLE

Data on one sequence can be found in patent US20220283187.

Construct, isoform or probe ends are uncertain for at least one entry. Where cells or extracts were used, other partners may take part.

Consider “CCCCCCACGGTCTCCGCTCCACAAGTTCAC [Tau_1 (DONGYBM)]”, for which the binding result was “binds”.
